Counter-ions that a name gives are not always drawn. The list shows a part of the results. Hit calls seldom repeat between salt and free forms of one compound.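 Kinases were expressed as nanoluciferase fusions in K562 cells and luminescence was read every 4 h between 2 and 18 h as percent of control, DMSO set to 100% and a positive control to 0%. A time point counts as decreased when the signal drops significantly (2 sigma). The hit call is the authors' own, does not follow from the count of time points alone, and its rule is not shown.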

By UniProt entry, the sequences of proteins in these tests, tags left out. Where a name states a change or a piece, a line headed by the entry shows the natural chain unless it says otherwise.
UniProt P07947, whole entry, looked up: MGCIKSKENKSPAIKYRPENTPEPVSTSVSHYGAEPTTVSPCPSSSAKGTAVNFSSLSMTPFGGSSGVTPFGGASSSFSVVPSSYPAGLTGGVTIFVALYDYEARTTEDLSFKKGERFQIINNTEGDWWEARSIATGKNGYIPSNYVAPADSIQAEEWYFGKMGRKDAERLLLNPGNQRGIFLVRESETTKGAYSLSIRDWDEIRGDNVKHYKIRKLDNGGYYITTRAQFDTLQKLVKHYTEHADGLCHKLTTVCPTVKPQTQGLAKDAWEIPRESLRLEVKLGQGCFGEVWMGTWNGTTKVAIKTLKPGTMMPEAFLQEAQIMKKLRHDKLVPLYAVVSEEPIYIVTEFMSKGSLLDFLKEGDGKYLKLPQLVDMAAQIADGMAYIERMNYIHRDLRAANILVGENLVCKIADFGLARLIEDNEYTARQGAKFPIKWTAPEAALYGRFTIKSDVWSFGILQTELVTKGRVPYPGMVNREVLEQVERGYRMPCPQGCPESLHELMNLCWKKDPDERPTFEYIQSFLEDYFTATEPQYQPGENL
UniProt P43403: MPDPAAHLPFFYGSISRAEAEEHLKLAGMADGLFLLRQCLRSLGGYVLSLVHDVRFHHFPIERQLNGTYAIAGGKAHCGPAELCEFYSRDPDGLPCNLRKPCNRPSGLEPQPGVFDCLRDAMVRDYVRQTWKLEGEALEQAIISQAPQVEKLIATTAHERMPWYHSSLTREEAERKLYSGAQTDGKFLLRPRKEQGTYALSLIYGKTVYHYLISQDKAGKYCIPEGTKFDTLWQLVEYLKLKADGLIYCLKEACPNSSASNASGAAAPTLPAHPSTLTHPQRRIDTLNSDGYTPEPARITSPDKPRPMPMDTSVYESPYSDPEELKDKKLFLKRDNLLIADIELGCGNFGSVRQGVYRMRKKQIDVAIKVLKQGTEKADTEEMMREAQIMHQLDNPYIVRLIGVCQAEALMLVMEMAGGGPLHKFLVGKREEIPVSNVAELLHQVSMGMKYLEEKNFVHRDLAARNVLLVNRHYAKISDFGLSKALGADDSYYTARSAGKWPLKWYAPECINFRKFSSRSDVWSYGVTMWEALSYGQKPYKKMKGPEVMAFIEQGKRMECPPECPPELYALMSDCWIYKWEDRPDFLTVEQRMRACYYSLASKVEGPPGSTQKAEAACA
UniProt P11802: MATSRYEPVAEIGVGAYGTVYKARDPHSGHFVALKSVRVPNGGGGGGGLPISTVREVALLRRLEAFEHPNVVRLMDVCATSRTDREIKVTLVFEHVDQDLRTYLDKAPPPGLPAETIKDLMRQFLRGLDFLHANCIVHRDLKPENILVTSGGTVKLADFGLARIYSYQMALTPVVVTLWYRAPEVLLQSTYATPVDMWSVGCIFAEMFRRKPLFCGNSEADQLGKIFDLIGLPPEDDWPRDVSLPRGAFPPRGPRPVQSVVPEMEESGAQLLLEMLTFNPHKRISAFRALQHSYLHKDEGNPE
UniProt P50613: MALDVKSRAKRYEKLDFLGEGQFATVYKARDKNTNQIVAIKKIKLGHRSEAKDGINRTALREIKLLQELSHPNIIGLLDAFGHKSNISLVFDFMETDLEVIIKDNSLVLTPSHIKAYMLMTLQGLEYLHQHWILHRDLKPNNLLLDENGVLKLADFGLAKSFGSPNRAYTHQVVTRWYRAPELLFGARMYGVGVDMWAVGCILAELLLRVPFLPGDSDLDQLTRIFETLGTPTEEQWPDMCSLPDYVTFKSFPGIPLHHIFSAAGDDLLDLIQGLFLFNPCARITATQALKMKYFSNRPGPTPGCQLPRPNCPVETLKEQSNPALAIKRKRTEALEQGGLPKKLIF
UniProt P50750, whole entry: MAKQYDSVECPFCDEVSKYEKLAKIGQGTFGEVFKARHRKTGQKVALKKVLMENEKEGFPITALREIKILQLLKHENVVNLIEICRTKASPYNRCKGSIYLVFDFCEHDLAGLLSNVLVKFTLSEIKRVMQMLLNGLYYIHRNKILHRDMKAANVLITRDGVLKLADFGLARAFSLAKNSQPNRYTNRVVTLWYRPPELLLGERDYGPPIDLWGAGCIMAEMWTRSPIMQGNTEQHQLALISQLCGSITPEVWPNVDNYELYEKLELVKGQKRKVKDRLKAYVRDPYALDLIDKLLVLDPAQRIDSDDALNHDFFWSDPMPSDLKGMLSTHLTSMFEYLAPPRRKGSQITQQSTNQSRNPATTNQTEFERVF

Conditions in all cases: K562; 2-18 h
For test [1], the target named is YES1 (UniProt P07947). In words: number of time points (of 5) at which kinase-Nluc abundance scored as decreased, DMSO-normalised (count); higher = more persistent destabilization.
In test [2] the target is ZAK (UniProt Q9NYL2). Described as above.
In test [3] the target is ZAP70 (UniProt P43403). The test is described as above.
Test [4] deals with CDK4 (UniProt P11802). Nature of the test: number of time points (of 4; 2 h point missing) at which kinase-Nluc abundance scored as decreased, DMSO-normalised (count); higher = more persistent destabilization.
The target of test [5] is CDK7 (UniProt P50613). Described as above.
The target of test [6] is CDK9 (UniProt P50750). Described as above.

Take `O=C(/C=C/c1ccc(O)c(O)c1)c1ccc(O)cc1O` [Butein] (10 µM): the “number of time points” value in test [1] was found to be 3; in test [2], 0; in test [3], 0; in test [4], 0; in test [5], 1; in test [6], 0.

With `Cc1nc(N)sc1-c1ccnc(Nc2ccc(N3CCOCC3)cc2)n1` (10 µM), the “number of time points” value was determined as 0 in test [1]; 0 in test [3]; 0 in test [4]; 4 in test [5]; 0 in test [6].

Regarding `C=CC(=O)N1C[C@H](Nc2ncnc3[nH]ccc23)CC[C@@H]1C` [Ritlecitinib] (10 µM), the “number of time points” value in test [1], in test [2], in test [3], in test [4], in test [5] and in test [6] was 0 each time.

`COc1ccc(COc2ccc(Cc3cnc(N)nc3N)cc2OC)cc1` (10 µM): the “number of time points” value in test [1], in test [2], in test [3], in test [4], in test [5] and in test [6] was 0 throughout.

For `CCc1nc(-c2cccc(C)c2)c(-c2ccnc(NC(=O)c3ccccc3)c2)s1` (10 µM), the “number of time points” value in test [1], in test [2], in test [3], in test [4], in test [5] and in test [6] was 0 each time.

Take `CNC(=O)c1cccc2cc(Oc3ccnc4cc(OCC5(N)CC5)c(OC)cc34)ccc12` [Lucitanib] (10 µM): the “number of time points” value in test [1], in test [2], in test [3], in test [4], in test [5] and in test [6] was 0 in each case.

Take `COc1ccc2c(NC(=O)Nc3cccc(C(F)(F)F)n3)ccnc2c1` (10 µM): the “number of time points” value in test [1], in test [3], in test [4], in test [5] and in test [6] was 0 each time.

For the compound `COc1cc2ncnc(Nc3ccc(O)cc3)c2cc1OC` (10 µM), the “number of time points” value in test [1], in test [2], in test [3], in test [4], in test [5] and in test [6] was 0 throughout.

As to `C=CC(=O)N1CCC[C@@H](n2nc(-c3ccc(Oc4ccccc4)cc3)c(C(N)=O)c2N)C1` [Btk inhibitor 2] (10 µM), the “number of time points” value in test [1], in test [2], in test [3], in test [4], in test [5] and in test [6] was 0 in each case.

Regarding `Cc1ccc(NC(=O)Nc2nnc(Sc3ncnc4cc(OCCCN5CCOCC5)ccc34)s2)cc1` (10 µM), the “number of time points” value in test [1], in test [2], in test [3], in test [4], in test [5] and in test [6] was 0 each time.

On to `Cc1cccc(Cn2nc(C3CC3)c3c(NC(=O)c4cnc5cc(OCCN6CCN(C)CC6)ccn45)cccc32)n1` (10 µM), for which the “number of time points” value in test [1], in test [2], in test [3], in test [4], in test [5] and in test [6] was 0 throughout.

As for `Oc1ccc(-c2nc(-c3ccc(F)cc3)c(-c3ccncc3)[nH]2)cc1` (2.5 µM), the “number of time points” value in test [1], in test [2], in test [3], in test [4], in test [5] and in test [6] was 0 in each case.

Take `CC(=O)NCC(=O)N1[C@@H]2CC[C@H]1c1ccc(Nc3ncc(C(F)(F)F)c(NC4CCC4)n3)cc12` (2.5 µM): the “number of time points” value in test [1] is 1; in test [2], 0; in test [3] it was 0; in test [4], 0; in test [5] it was 4; in test [6], 0.

Consider `CN(c1ncccc1CNc1nc(Nc2ccc3c(c2)CC(=O)N3)ncc1C(F)(F)F)S(C)(=O)=O` (2.5 µM), for which the “number of time points” value in test [1], in test [3], in test [4], in test [5] and in test [6] was 0 throughout.

`CN1CCN(C(=O)c2ccc(-c3ccc4c(C=O)c(O)ccc4c3)s2)CC1` (2.5 µM): the “number of time points” value in test [1], in test [2], in test [3], in test [4], in test [5] and in test [6] was 0 in each case.

With `Cc1[nH]c(/C=C2\C(=O)Nc3ccc(S(=O)(=O)Cc4c(Cl)cccc4Cl)cc32)c(C)c1C(=O)N1CCC[C@@H]1CN1CCCC1` (2.5 µM), the “number of time points” value in test [1], in test [2], in test [3], in test [4], in test [5] and in test [6] was 0 in each case.

Turning to `COc1cc(N2CCC(N)CC2)ccc1Nc1ncc(Cl)c(-c2c[nH]c3ccccc23)n1` (2.5 µM), the “number of time points” value in test [1], in test [2], in test [3], in test [4], in test [5] and in test [6] was 0 in each case.

On to `CC1(C)CC=C(c2nc(C3CC(C)(C)OC(C)(C)C3)ccc2NC(=O)c2nc(C#N)c[nH]2)CC1` [Edicotinib] (2.5 µM), for which the “number of time points” value in test [1], in test [2], in test [3], in test [4], in test [5] and in test [6] was 0 each time.

On to `Cc1c[nH]c2nccc(Oc3c(F)cc(Nc4cc(Cl)nc(N)n4)cc3F)c12` (10 µM), for which the “number of time points” value turned out to be 2 in test [1]; 0 in test [3]; 0 in test [4]; 1 in test [5]; 0 in test [6].

As to `O=C(c1ccc(-c2ccc(Cl)cc2)o1)N(Cc1ccccn1)c1ccc(N2CCNCC2)cc1` [MK2-IN-1 (hydrochloride)] (10 µM), the “number of time points” value in test [2] stood at 0; in test [3] it was 0; in test [4] it was 0; in test [5], 1; in test [6] it was 0.

As to `O=C1NCCc2[nH]c(-c3ccnc(-c4cnc5ccccc5c4)c3)cc21` (10 µM), the “number of time points” value in test [1], in test [2], in test [3], in test [4], in test [5] and in test [6] was 0 throughout.

Take `CCOc1ccn(-c2ccc(F)cc2)c(=O)c1C(=O)Nc1ccc(Oc2ccnc(N)c2Cl)c(F)c1` (10 µM): the “number of time points” value in test [1] worked out at 1; in test [2] it was 1; in test [3] it was 0; in test [4], 0; in test [5], 4; in test [6], 2.

`CNC(=O)c1cccc(-c2ccc3c(N4CCOC[C@@H]4C)nc(N4CCOC[C@@H]4C)nc3n2)c1` [Vistusertib] (2.5 µM): the “number of time points” value in test [1] turned out to be 1; in test [2], 1; in test [3], 0; in test [4] it was 2; in test [5], 4; in test [6], 4.

In the case of `CC(=O)N1CCN(c2ccc(OCC3COC(Cn4ccnc4)(c4ccc(Cl)cc4Cl)O3)cc2)CC1` (stereo not given) [Ketoconazole] (2.5 µM), the “number of time points” value in test [1], in test [2], in test [3], in test [4], in test [5] and in test [6] was 0 in each case.

Regarding `COc1cc(C=C(C#N)C(N)=O)cc(CSc2nc3ccccc3s2)c1O` (10 µM), the “number of time points” value in test [1], in test [2], in test [3], in test [4], in test [5] and in test [6] was 0 each time.
